These are yes or no findings as the source states them, for the method shown. Binding seen in cells or lysates may run through a third protein. Some binding calls cover weakened binding; strength is not graded here.
Molecular target: FFA1 Y114A of the arrestin-3 interaction assays (eYFP-labelled) (human) (UniProt O14842)
Assay: FRET or BRET; arrestin-3 interaction (recruitment) assay of FFA1 wild type and Y114A, DHA concentration-response curves; receptor expression by eYFP fluorescence

Sequences of proteins named here, by UniProt entry; tags and fusion partners are left off. A change or cut given only in a name is not applied to a line headed by its entry.
UniProt O14842: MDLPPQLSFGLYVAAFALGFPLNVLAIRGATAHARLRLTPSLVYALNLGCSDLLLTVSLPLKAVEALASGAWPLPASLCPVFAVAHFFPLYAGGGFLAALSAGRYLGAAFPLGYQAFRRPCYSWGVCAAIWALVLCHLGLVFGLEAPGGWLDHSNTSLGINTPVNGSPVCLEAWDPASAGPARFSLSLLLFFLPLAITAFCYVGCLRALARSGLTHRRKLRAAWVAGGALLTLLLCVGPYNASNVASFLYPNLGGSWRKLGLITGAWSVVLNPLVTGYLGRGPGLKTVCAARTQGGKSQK

Substance: arrestin-3 fused to NanoLuc luciferase (from UniProt P32121 1-409)
- binding: binds

From publication PMC10780892
